In PubChem BioAssay AID602313 (National Center for Advancing Translational Sciences (NCATS), 2012):
Screen size: about 390,000 compounds; about 760 (0.19%) were called active. Inconclusive results, whose numbers are uncertain, are shown with a selection of clear calls. The call rests on the fitted dose curve; in most records, active means well fitted inhibition curve with a large enough effect; inconclusive means small, poorly fitted or top-dose-only effect; inactive means flat fitted curve, though single readings scatter. Potencies beside an inconclusive call are fits to weak or partial responses and may not hold up.

Assay: qHTS for Inhibitors of Vif-A3F Interactions: qHTS; further: nearly all actives have a fitted effect of over 65% in size; on activity, negative = active: % of control where 0% means no effect
Settings: HeLa A3F-eYFP + Vif (tagged APOBEC3F with the HIV-1 protein that degrades it), YFP fluorescence increase; series mostly up to 46.1 µM; activity, negative = active: at the top concentration
Summary of the method: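 Fluorescence increase (Ex 488/Em 500-530) after overnight compound treatment at 37 deg C flags inhibition of Vif-driven A3F-eYFP loss in stable HeLa A3F-eYFP/Vif cells seeded overnight beforehand.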
Potency means the concentration at half of the fitted maximal effect.

Structure (SMILES) | Potency | activity, negative = active
Oc1cccc2nc3ccccc3nc12 | inconclusive: 35.5 µM [inhibitor, single point] | 
COc1cc(/C=C/[N+](=O)[O-])ccc1OC(=O)c1cccnc1 | inconclusive: 5.62 µM [inhibitor, single point] | 
O=c1c2ccccc2c(C=Nc2ccc(O)cc2)c(O)n1Cc1ccccc1 | inconclusive: 35.5 µM [inhibitor, single point] | 
CC1=CC(=O)OC2CC3OC4C[C@@H](C)C5OC6CC7O[C@]8(C)C/C=C\C9OC%10CC%11OC(CC(C)C%12OCCO%12)CC(O)[C@]%11(C)OC%10CC9OC8C[C@]7(C)O[C@]6(C)CCC5OC4C[C@]3(C)OC12 (stereo partly specified) |  | inactive: 3.02%
CCc1ccccc1NC(=O)c1sc2nc3c(cc2c1N)CN(Cc1ccccc1)CC3 | inconclusive: 25.1 µM [inhibitor, single point] | 
CNC(=O)Oc1cccc2c1OC(C)(C)O2 | inconclusive: 3.16 µM [inhibitor, single point] | 
CC(=O)Nc1ccc(C(=O)OCC(=O)Nc2ccc(Cl)cc2C(=O)c2ccccc2)cc1 |  | inactive: -5.52%
CCCCc1ccc2[nH]cc(CCN)c2c1 |  | inactive: -13.9%
C[C@@H]1CN([C@H](C)CO)C(=O)CCCn2cc(nn2)CO[C@H]1CN(C)C(=O)Oc1ccc2ccccc2c1 |  | inactive: -3.23%
COc1ccc(-n2c(/C=C/c3ccc(O)c(OC)c3)nc3ccccc3c2=O)cc1 | active: 20 µM | 
CN(C)c1ccc(C=C2C(=O)NC(=O)NC2=O)cc1 | inconclusive: 35.5 µM [inhibitor, single point] | 
Cc1ccc(NC(=O)CN2C(=O)CN=C(c3ccccc3)c3ccccc32)cc1Cl |  | inactive: 0.205%
O=C1NC(=O)N(CCC2=CCCCC2)C(=O)/C1=C/c1cccs1 |  | inactive: -0.952%
ClC1=C(Cl)C(Cl)=C(Cl)C1=C/C=C/c1ccccc1 | inconclusive: 15.8 µM [inhibitor, single point] | 
Cc1c2ccncc2c(C)c2c1[nH]c1ccccc12 | active: 10 µM | 
Clc1ccc(CCC(Cn2ccnc2)Sc2c(Cl)cccc2Cl)cc1 (stereo unspecified) | inconclusive: 35.5 µM [inhibitor, single point] | 
O=C1/C(=C/c2ccc3c(c2)OCO3)SC(=S)N1CCC(=O)N(CCO)c1ccccc1 | active: 22.4 µM | 
O=C1NC(=O)N(c2ccccc2)C(=O)/C1=C/C=C/c1ccco1 |  | inactive: -17.7%
N#Cc1ccc(OCC(=O)N2CCN(Cc3ccc4c(c3)OCO4)CC2)cc1 | inconclusive: 5.62 µM [inhibitor, full curve, poor fit] | 
CN1C2CCC1CC(OC(c1ccccc1)c1ccccc1N)C2 (stereo unspecified) |  | inactive: 0.585%
CCOc1ccc(Nc2ncnc3c2nnn3Cc2ccccc2)cc1 | inconclusive: 7.94 µM [inhibitor, partial curve, poor fit] | 
O=[N+]([O-])c1ccc(N2CCCC2)c2ncccc12 | inconclusive: 35.5 µM [inhibitor, single point] | 

Taken from above:
For activity, negative = active, `CCCCc1ccc2[nH]cc(CCN)c2c1` is entered as inactive: -13.9%
For Potency, `N#Cc1ccc(OCC(=O)N2CCN(Cc3ccc4c(c3)OCO4)CC2)cc1` is entered as inconclusive: 5.62 µM [inhibitor, full curve, poor fit]

Remaining list, next part:

Structure (SMILES) | Potency | activity, negative = active
S=C(Nc1ccccc1)Nc1ccccn1 | inconclusive: 22.4 µM [inhibitor, partial curve, poor fit] | 
O=c1c2ccccc2nc(/C=C/c2ccc(O)c(O)c2)n1-c1ccccc1 | inconclusive: 6.31 µM [inhibitor, single point] | 
O=C1NC(=O)N(c2ccccc2)C(=O)/C1=C\c1ccc([N+](=O)[O-])s1 | inconclusive: 35.5 µM [inhibitor, single point] | 
O=c1[nH]c(=O)n(-c2ccc(F)cc2)c(O)c1/C=C1\C=Nc2ccccc21 | inconclusive: 25.1 µM [inhibitor, single point] | 
O=[N+]([O-])c1cc(F)c(N2CCCCC2)cc1Br | inconclusive: 35.5 µM [inhibitor, single point] | 
Cc1cc(N2CCOCC2)ccc1/C=C1\C(=O)NC(=O)N(c2ccccc2)C1=O | inconclusive: 35.5 µM [inhibitor, single point] | 
c1ccc(CN2CCNCC2)nc1 | inconclusive: 3.55 µM [inhibitor, partial curve, poor fit] | 
CN1C(=O)/C(=C\c2ccc(Br)s2)C(=O)NC1=S | inconclusive: 11.2 µM [inhibitor, partial curve, poor fit] | 
Cc1ccc(-c2nc(CN3C(=O)CN=C(c4ccccc4Cl)c4cc(Cl)ccc43)c(C)o2)cc1 |  | inactive: 2.54%
CN=C1CN(O)C(c2ccccc2)c2cc(Cl)ccc2N1 (stereo unspecified) | inconclusive: 35.5 µM [inhibitor, single point] | 
CCCC[N+]12CCC(CC1)C(Cc1ccccc1)C2 (stereo unspecified) |  | inactive: 6.19%
Cc1cccc(NC(=O)Oc2ccc(Cl)c3cccnc23)c1 | inconclusive: 35.5 µM [inhibitor, single point] | 
COc1ccc(CC(=O)C2C(=O)N(C)c3ccccc32)cc1OC (stereo unspecified) | inconclusive: 35.5 µM [inhibitor, single point] | 
COc1ccc(-n2c(O)c(/C=C3\C=Nc4ccccc43)c(=O)[nH]c2=O)cc1 | inconclusive: 35.5 µM [inhibitor, single point] | 
O=C1NC(=O)N(Cc2ccccc2)C(=O)/C1=C/C=C/c1ccco1 | inconclusive: 22.4 µM [inhibitor, partial curve, poor fit] | 
O=C1CN=C(c2ccccc2)c2cc([N+](=O)[O-])ccc2N1 |  | inactive: -0.845%
CCOc1ccc(-n2c(O)c(C=Nc3ccc(N(CC)CC)cc3)c(=O)[nH]c2=O)cc1 | inconclusive: 35.5 µM [inhibitor, single point] | 
O=C(Cc1cc(=O)oc2cc(O)ccc12)NN=Cc1ccc(N(CCCl)CCCl)cc1 | inconclusive: 2.51 µM [inhibitor, partial curve, poor fit] | 
COc1ccc(C2=NCC(=S)Nc3ccc(Cl)cc32)cc1OC | inconclusive: 4.47 µM [inhibitor, single point] | 
Cc1ccc(CNC(=O)c2ccc(Nc3nc4ccccc4n4nnnc34)cc2)cc1 | inconclusive: 5.62 µM [inhibitor, full curve, poor fit] | 
Cc1ccc(N2C(=O)NC(=O)/C(=C/c3ccoc3)C2=O)cc1 | inconclusive: 22.4 µM [inhibitor, single point] | 
O=C(/C=C/c1ccc2c(c1)OCO2)c1c(O)n(CCC2=CCCCC2)c(=O)[nH]c1=O |  | inactive: -7.83%

Molecules listed so far that have four or more nitrogen atoms:
Structure (SMILES) | Potency | activity, negative = active
CCc1ccccc1NC(=O)c1sc2nc3c(cc2c1N)CN(Cc1ccccc1)CC3 | inconclusive: 25.1 µM [inhibitor, single point] | 
C[C@@H]1CN([C@H](C)CO)C(=O)CCCn2cc(nn2)CO[C@H]1CN(C)C(=O)Oc1ccc2ccccc2c1 |  | inactive: -3.23%
CCOc1ccc(Nc2ncnc3c2nnn3Cc2ccccc2)cc1 | inconclusive: 7.94 µM [inhibitor, partial curve, poor fit] | 
CCOc1ccc(-n2c(O)c(C=Nc3ccc(N(CC)CC)cc3)c(=O)[nH]c2=O)cc1 | inconclusive: 35.5 µM [inhibitor, single point] | 
Cc1ccc(CNC(=O)c2ccc(Nc3nc4ccccc4n4nnnc34)cc2)cc1 | inconclusive: 5.62 µM [inhibitor, full curve, poor fit] | 

Continuation:

Structure (SMILES) | Potency | activity, negative = active
C=CCn1c(O)c(/C=C2/C=c3ccccc3=N2)c(=O)[nH]c1=S |  | inactive: -14.5%
COc1cccc(NP(=O)(Oc2ccc(Cl)cc2)Oc2ccc(Cl)cc2)c1 | inconclusive: 35.5 µM [inhibitor, single point] | 
C=C(C)[C@@H]1CC[C@]2(C(=O)O)CC[C@]3(C)[C@H](CC[C@@H]4[C@@]5(C)CC[C@H](O)C(C)(C)[C@@H]5CC[C@]43C)[C@@H]12 | inconclusive: 6.31 µM [inhibitor, single point] | 
COC(=O)Cn1cc(/C=C2\C(=O)NC(=O)N(c3ccccc3)C2=O)c2ccccc21 | inconclusive: 31.6 µM [inhibitor, single point] | 
O=C1NC(=O)C(=Cc2ccccc2[N+](=O)[O-])C(=O)N1 |  | inactive: 4.09%
CCCCn1c(NC(=O)c2ccc(Br)o2)c(C(=O)OCC)c2nc3ccccc3nc21 | inconclusive: 35.5 µM [inhibitor, single point] | 
Cc1ccc(N2C(=O)NC(=O)/C(=C\c3ccoc3)C2=O)cc1 | inconclusive: 35.5 µM [inhibitor, single point] | 
COc1ccccc1-n1c(O)c(/C=C2\C=Nc3ccccc32)c(=O)[nH]c1=O | inconclusive: 35.5 µM [inhibitor, partial curve, poor fit] | 
C=CCN1C(=O)/C(=C/c2ccc(N3CCOCC3)o2)C(=O)NC1=S | inconclusive: 20 µM [inhibitor, partial curve, poor fit] | 
O=C1CC(=O)N(c2cccc(Br)c2)C(=O)N1 | inconclusive: 12.6 µM [inhibitor, partial curve, poor fit] | 
O=C1NC(=O)N(Cc2ccc(F)cc2)C(=O)/C1=C/c1cccs1 | inconclusive: 6.31 µM [inhibitor, single point] | 
Cc1cccc(-n2c(/C=C/c3ccc([N+](=O)[O-])o3)nc3ccccc3c2=O)c1 | active: 8.91 µM | 
Cc1ccc2c(c1)=NC(=O)/C(=C/c1c(O)[nH]c(=O)[nH]c1=O)C=2 |  | inactive: 7.32%
O=c1c2ccccc2nc(/C=C/c2ccccc2F)n1-c1ccccc1O |  | inactive: 1.08%
Cc1cccc(CN2CCCC(C(=O)c3cccc(OC(C)C)c3)C2)n1 (stereo unspecified) | active: 22.4 µM | 
O=c1[nH]c(=S)n(-c2ccccc2)c(O)c1/C=N/N1CCCCC1c1cccnc1 (stereo unspecified) | inconclusive: 35.5 µM [inhibitor, single point] | 
O=C1NC(=O)N(CCc2ccc(F)cc2)C(=O)/C1=C/c1cccs1 | inconclusive: 20 µM [inhibitor, single point] | 
CC(C)c1oc(=O)cc2c1[C@@H](O)[C@H]1OC(=O)[C@@]3(C)C[C@@H](O)[C@@H](O)[C@@]2(C)C13 (stereo partly specified) | inconclusive: 2.51 µM [inhibitor, partial curve, poor fit] | 
COc1ccc2nc(NC(=O)c3nc(S(=O)(=O)Cc4cccc(C)c4)ncc3Cl)sc2c1 | inconclusive: 35.5 µM [inhibitor, single point] | 
COc1ccc(C[C@H]2NC[C@H](O)[C@H]2OC(C)=O)cc1 |  | inactive: 6.61%
CCCCn1c(O)c(/C=N/NC(=O)c2ccncc2)c(=O)[nH]c1=S | inconclusive: 22.4 µM [inhibitor, single point] | 
O=c1c2ccccc2[nH]c(=S)n1-c1cccc(Cl)c1 |  | inactive: -2.68%

Structure (SMILES) | Potency | activity, negative = active
O=C1NC(=O)C(=Cc2ccccc2OCCOc2ccc([N+](=O)[O-])cc2)C(=O)N1 |  | inactive: -9.6%
CCOC(=O)c1c(/N=C/C2C(=O)NC(=S)NC2=O)sc2c1CCC2 | inconclusive: 15.8 µM [inhibitor, partial curve, poor fit] | 
CN(C)c1ccc(C=C2C(=O)NC(=S)NC2=O)cc1 |  | inactive: -7.57%
CN1C(=O)C(=Cc2cn(CC#N)c3ccccc23)C(=O)N(C)C1=O | inconclusive: 35.5 µM [inhibitor, single point] | 
Cc1ccc(N2C(=O)NC(=O)/C(=C\c3cnc(-c4ccccc4)nc3)C2=O)cc1 | inconclusive: 31.6 µM [inhibitor, single point] | 
Cc1nc2c(=O)n(C)c(=O)nc-2n(C)n1 |  | inactive: 4.08%
Cc1ccc(CN2CC3CC(C2)c2cccc(=O)n2C3)cc1 (stereo unspecified) |  | inactive: -1.31%
Nc1c(C(=O)NCCN2CCOCC2)c2nc3ccccc3nc2n1Cc1ccccc1 |  | inactive: 5.28%
Cc1cccc(CN2CCCC(C(=O)c3ccc4c(c3)OCO4)C2)n1 (stereo unspecified) | inconclusive: 17.8 µM [inhibitor, single point] | 
Cc1ccc(N2C(=O)NC(=O)/C(=C/C=C/c3ccco3)C2=O)cc1 | inconclusive: 2.82 µM [inhibitor, full curve, poor fit] | 
CN(C)C(=O)Oc1ccc(-c2cn3cc(Cl)ccc3n2)cc1 | inconclusive: 25.1 µM [inhibitor, partial curve, poor fit] | 
CN1C(=O)/C(=C/c2ccc(N3CCCCCC3)o2)C(=O)NC1=S | inconclusive: 14.1 µM [inhibitor, partial curve, poor fit] | 
C[C@]12C=CC(=O)C=C1CC[C@@H]1C2=CC[C@]2(C)[C@@H](C(=O)CN3CCN(c4cc(N5CCCC5)nc(N5CCCC5)n4)CC3)CC[C@@H]12 | inconclusive: 11.2 µM [inhibitor, partial curve] | 
c1ccc(P(c2ccccc2)c2ccccn2)cc1 | inconclusive: 35.5 µM [inhibitor, partial curve, poor fit] | 
CN1CCc2nc(SC(C(=O)O)c3ccccc3)c(C#N)c(-c3cccs3)c2C1 (stereo unspecified) | inconclusive: 35.5 µM [inhibitor, single point] | 
CCN1C(=O)C(=Cc2cc(C)n(C3CC3)c2C)C(=O)N(CC)C1=S |  | inactive: -5.49%
Cc1ccc(C)c(Cn2c(C(=O)O)c(C=O)c3ccccc32)c1 | inconclusive: 17.8 µM [inhibitor, partial curve, poor fit] | 
CN(C)c1ccc(Cc2ccc(N(C)C)cc2)cc1 | inconclusive: 3.16 µM [inhibitor, partial curve, poor fit] | 
CCN1C(=O)C(=Cc2ccc(N3CCOCC3)o2)C(=O)N(CC)C1=S | inconclusive: 2.82 µM [inhibitor, full curve, poor fit] | 
O=c1[nH]c(=O)n(Cc2ccccc2)c(O)c1/C=C1\C=Nc2ccccc21 | inconclusive: 22.4 µM [inhibitor, single point] | 
